Some of the results follow. The main result of the screen is listed elsewhere. These columns were measured beside it and carry no call. Compounds called inactive in the main read-out are mostly missing here. Potencies come from curve fits of mixed quality, noted in brackets.
Test: qHTS Assay for Lipid Storage Modulators in Drosophila S3 Cells;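 on cell number change: cells counted by Cell Tracker Red CMTPX staining in the red channel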
Conditions: BODIPY lipid droplet fluorescence, 18-24 h; for cell number change: measured here: cell count max response, cells fed with added oleic acid
Procedure, shortened: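 Laser-scanning cytometry quantifies lipid droplet accumulation (500–530 nm total intensity; droplet/cell object ratio) in oleic acid-fed (400 uM added) Drosophila S3 cells treated with a concentration series. 20 uM Triacsin C defined 100% inhibition.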

[1] = measured here: cell number channel AC50, cells fed with added oleic acid
[2] = measured here: lipid fluorescence (Fed channel) AC50, cells fed with added oleic acid

SMILES	AC50 [1]	cell number change [%]	AC50 [2]
Cc1ccc(S(=O)(=O)N(C)Cc2nc(-c3ccncc3)no2)cc1	2.59 µM [rising, partial curve]	–	–
COc1ccc(S(=O)(=O)N2CCC(C(=O)NCC3CC3)CC2)cc1	3.26 µM [rising, single point]	1.28	5.17 µM [falling, single point]
O=C(c1ccccc1F)N1CCN(c2cccc(C(F)(F)F)c2)CC1	0.058 µM [falling, full curve, poor fit]	-1.77	–
NS(=O)(=O)c1cccc(NC(=O)Cn2cnc3ccccc3c2=O)c1	–	-11.7	23.1 µM [falling, partial curve]
O=C(CCc1ccccc1)Nc1cc2c3c(c1)CC(=O)N3CCC2	29.1 µM [rising, single point]	60.6	–
O=C(Cn1nnc2ccccc2c1=O)NCC1CCC(C(=O)O)CC1 (stereo not given)	–	-23.4	–
Cc1ccc(CNC(=O)Nc2ccc(OC(F)(F)F)cc2)n1C	–	19.9	4.61 µM [rising, full curve, poor fit]
COc1ccc(S(=O)(=O)N(C)CC(=O)NCc2ccco2)cc1Cl	–	-21.8	29.1 µM [rising, single point]
COC(=O)c1[nH]c2ccccc2c1NC(=O)CN1CCN(C/C=C/c2ccccc2)CC1	29.1 µM [falling, single point]	-44	0.517 µM [rising, full curve]
O=C(Cn1cc2c(n1)CCCCC2)NCc1cccs1	–	21.6	23.1 µM [rising, partial curve, poor fit]
COc1ccc(NC(=S)Nc2cnc3ccccc3c2)c(OC)c1	–	14.9	35.5 µM [rising, single point]
O=C(Nc1ccn(C2CC(OC(=O)c3ccccc3)C(CO)O2)c(=O)n1)c1ccccc1 (stereo not given)	–	-12	0.00461 µM [falling, full curve, poor fit]
O=C(NCCc1ccccc1)c1cc2sccc2n1Cc1ccccc1	–	-8.98	29.1 µM [falling, single point]
COc1ccc(CCNC(=O)[C@H](C)N2C(=O)N3CCc4c([nH]c5ccccc45)[C@@]3(C)C2=O)cc1	20.6 µM [falling, single point]	-34.6	29.1 µM [falling, single point]
O=C(N/N=C(\c1ccccc1)c1cccnc1)c1cccc(F)c1	29.1 µM [falling, single point]	-54	29.1 µM [falling, single point]
Cc1cc(-n2c(SCC(=O)NCc3cccs3)nc3n[nH]c(C)c3c2=N)ccc1Cl	–	-25.8	29.1 µM [falling, single point]
Cc1nnc(NC(=O)C2CCCN(c3ncccn3)C2)s1 (stereo not given)	–	21.8	0.731 µM [rising, single point]
Cc1ccc(S(=O)(=O)N2CCOCC2)cc1NC(=O)CSc1nnc(NC2CC2)s1	–	9.34	6.51 µM [rising, single point]
COc1cc(OC)c(NC(C)C(=O)N2CCCC2)cc1Cl (stereo not given)	29.1 µM [rising, single point]	50.5	–
O=C1C2CC=CCC2C(=O)N1c1ccc(OCC(O)Cn2nnc3ccccc32)cc1 (stereo not given)	–	99.2	–

Only AC50 [2] and AC50 [1] (three entries from above):
SMILES	AC50 [2]	AC50 [1]
O=C(Nc1ccn(C2CC(OC(=O)c3ccccc3)C(CO)O2)c(=O)n1)c1ccccc1 (stereo not given)	0.00461 µM [falling, full curve, poor fit]	–
O=C(NCCc1ccccc1)c1cc2sccc2n1Cc1ccccc1	29.1 µM [falling, single point]	–
COc1ccc(CCNC(=O)[C@H](C)N2C(=O)N3CCc4c([nH]c5ccccc45)[C@@]3(C)C2=O)cc1	29.1 µM [falling, single point]	20.6 µM [falling, single point]

(cont.)

SMILES	AC50 [1]	cell number change [%]	AC50 [2]
COc1cc(/C=C/C(=O)OCC(=O)Nc2ccccc2Sc2ccc(Cl)cc2)ccc1O	29.1 µM [rising, single point]	31.1	–
COc1ccc(C2=NN(c3ccccc3)C(c3ccc(OC)c(OC)c3)C2)cc1 (stereo not given)	14.6 µM [falling, single point]	-43.1	32.6 µM [falling, partial curve, poor fit]
O=[N+]([O-])c1cccc(CNc2ccc3c(c2)CCC3)c1	–	-12.1	29.1 µM [rising, single point]
COc1ccc(/C=C/C(=O)Nc2c(C)nn(C)c2C)cc1COc1ccc(Cl)cc1Br	29.1 µM [falling, single point]	-36.3	29.1 µM [falling, single point]
N/C(=N\OC(=O)CSc1ccccc1)c1cccc([N+](=O)[O-])c1	–	27.6	23.1 µM [rising, single point]
COc1ccc(CN2CCN(CCc3ccccc3)C(CCO)C2)c(O)c1 (stereo not given)	–	2.65	0.0116 µM [rising, single point]
Cc1c(C(=O)N2CCCC2)nnn1-c1nonc1N	32.6 µM [falling, partial curve]	-97.7	0.00461 µM [falling, full curve, poor fit]
O=S(=O)(Nc1ccc(-c2nc3cccnc3s2)cc1)c1ccccc1F	–	8.07	0.82 µM [rising, full curve, poor fit]
COc1ccc(-c2cc(=O)oc3c(C)c(O)c(CN(C)C)cc23)cc1	0.0259 µM [rising, full curve]	–	–
O=C(Nc1ccc(Cl)cc1C(=O)Nc1ccc(Br)cn1)c1ccco1	–	-16.5	0.731 µM [rising, single point]
O=C(Nc1nccs1)C12CC3CC(C1)CC(C(=O)Nc1nccs1)(C3)C2	29.1 µM [falling, single point]	-37.5	16.4 µM [falling, single point]
CC(=O)NC(CC(=O)NCCOc1ccccc1F)c1ccccc1 (stereo not given)	–	11.7	29.1 µM [rising, single point]
CCCN(CCC)S(=O)(=O)c1ccc(C(=O)NCc2ccc3c(c2)OCO3)cc1	–	-1.02	29.1 µM [falling, single point]
COc1ccccc1N(CN1CCCC1=O)C(=O)c1c(F)cccc1F	–	6.34	–
O=c1cc(-c2ccccc2)cc(-c2ccccc2)n1CCO	25.9 µM [rising, single point]	30.2	23.1 µM [rising, single point]
O=S1(=O)N=C(N2CCOCC2)c2ccccc21	–	7.31	0.00461 µM [falling, full curve, poor fit]
CCOc1ccc(Br)cc1S(=O)(=O)NCCN(C)C	1.03 µM [falling, full curve]	-66.3	2.31 µM [falling, full curve]
CC(=O)c1sc(NC(=O)c2cc(S(=O)(=O)N3CCOCC3)ccc2F)nc1C	–	4.38	0.0517 µM [rising, full curve, poor fit]
COc1ccccc1Oc1ccc(S(=O)(=O)N2CCN(C)CC2)cc1	0.82 µM [rising, full curve, poor fit]	3.38	–
O=C(Cc1ccccc1F)Nc1cc(Cl)ccc1N1CCCC1	–	17.9	–

SMILES	AC50 [1]	cell number change [%]	AC50 [2]
Cc1ccc(NC(=O)CN(C)C(=O)C(C)OC(=O)CNC(=O)c2ccc(Cl)c([N+](=O)[O-])c2)cc1 (stereo not given)	–	5.38	–
Cc1oc2cc(O)ccc2c(=O)c1Oc1ccc(F)cc1	0.731 µM [rising, partial curve, poor fit]	31.5	–
O=C(CN1CCN(c2ccccc2)CC1)Nc1ccc(Oc2ccccc2)cc1	–	–	6.51 µM [rising, single point]
CCOCC(=O)Nc1nc2ccc(S(C)(=O)=O)cc2s1	–	-2.43	–
O=C(NCc1ccccc1Cl)c1ccc2c(=O)n(CC3CCCO3)c(=S)[nH]c2c1 (stereo not given)	2.91 µM [rising, partial curve, poor fit]	9.52	–
COc1cc2nc(CN3CCC(Cc4ccccc4)CC3)[nH]c(=O)c2cc1OC	–	-1.94	–
CSc1nc(-c2ccccc2)nc(NC(=O)C(C)C)c1C(C)=O	–	58.6	–
COc1ccc2nc(-c3ccc(N)cc3)[nH]c2c1	–	-25.4	23.1 µM [falling, single point]
COC(=O)c1ccc(CN2CCN(CCC(C)C)C(CCO)C2)cc1 (stereo not given)	–	-7.28	–
CC(=O)Nc1ccc(S(=O)(=O)Nc2ccc(=O)n(Cc3ccc(Cl)c(Cl)c3)c2)cc1	–	-33.7	29.1 µM [falling, single point]
CC(C)CN(C(=O)c1ccc(N2CCCC2=O)cc1)C1CCS(=O)(=O)C1 (stereo not given)	20.6 µM [falling, single point]	-42.6	–
O=C(O)c1cccc(S(=O)(=O)N2CCCC2)c1	0.651 µM [falling, full curve]	-36.7	7.31 µM [falling, partial curve]
Cc1cccc(NC(=O)Nc2ccc3c(c2)N(C)C(=O)CS3)n1	–	–	0.092 µM [rising, full curve, poor fit]
CCc1ccccc1NC(=O)c1ccc(-n2c(C)ccc2C)cc1	0.58 µM [rising, single point]	–	–
COc1ccc(-c2ccc3c(N)c(C(=O)c4cccc(OC)c4)sc3n2)cc1	7.31 µM [rising, partial curve]	147	–
COc1ccc(C(=O)CCc2nc3ccccc3s2)cc1	–	21.4	0.058 µM [rising, full curve, poor fit]
CN(C)S(=O)(=O)c1cccc(-c2nnc(SCc3cc(Cl)cc4c3OCOC4)n2N)c1	6.51 µM [rising, single point]	–	5.17 µM [rising, full curve, poor fit]
Clc1ccc(CN2CCC(Cc3ccccc3)CC2)cc1	8.2 µM [falling, partial curve]	-32.8	8.2 µM [falling, partial curve, poor fit]
COc1ccc(C(=O)NCC(=O)N/N=C/c2c(C)[nH]c3ccccc23)cc1OC	–	–	3.66 µM [rising, full curve, poor fit]

— PubChem BioAssay AID2685 (National Center for Advancing Translational Sciences (NCATS), 2010)
